Among all 1,700 compounds or so, about 150 (8.8%) were called active. Inconclusive means that the source gave no clear call. Such entries were picked first, then a sample of the others.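 The calls were made as follows: active = fluorescence change differing from the plate's solvent-only control wells at 99.7% confidence in both duplicates, whether higher or lower; inconclusive = differs from solvent controls in only one of two duplicates; inactive = the rest.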
molecular target: Muscarinic acetylcholine receptor M4 (Rattus norvegicus) (UniProt P08485); experiment: rat M4 muscarinic receptor activation – cell-based, agonist mode, counter-screen for M1 allosteric modulator project, confirmation (AID 1741); conditions: CHO M4/Gqi5 cells, Fluo-4 calcium fluorescence, at 10 µM, actives lie on both sides

Sequences of proteins named here, by UniProt entry; tags and fusion partners are left off.
UniProt P08485, whole entry, looked up: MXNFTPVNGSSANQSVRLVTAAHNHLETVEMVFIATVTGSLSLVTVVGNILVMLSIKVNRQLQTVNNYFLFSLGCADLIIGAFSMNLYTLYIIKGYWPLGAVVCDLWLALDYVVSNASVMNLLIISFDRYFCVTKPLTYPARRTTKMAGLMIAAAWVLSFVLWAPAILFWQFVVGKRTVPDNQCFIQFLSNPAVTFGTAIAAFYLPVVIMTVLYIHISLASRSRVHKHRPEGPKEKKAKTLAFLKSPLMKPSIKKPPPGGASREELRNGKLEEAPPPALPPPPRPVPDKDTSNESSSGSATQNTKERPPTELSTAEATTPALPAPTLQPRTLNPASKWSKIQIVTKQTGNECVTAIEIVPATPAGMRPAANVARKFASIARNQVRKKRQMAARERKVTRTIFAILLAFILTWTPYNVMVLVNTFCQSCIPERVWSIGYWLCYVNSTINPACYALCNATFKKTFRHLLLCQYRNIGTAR

Question: With O=S1(=O)CC2(N3CCOCC3)CCCCCCC21 (stereo not drawn) as the compound, how does the fluorescence change (max-min) read?
Answer: inactive: -38.8

Question: With COc1ccc2nc(NC(=O)CCc3nc(C4=CCN(C)CC4)no3)sc2c1 as the compound, how does the fluorescence change (max-min) read?
Answer: inactive: -41.4

Question: With CCCCn1c(NC(=O)c2ccco2)c(C(=O)OCC)c2nc3ccccc3nc21 as the compound, how does the fluorescence change (max-min) read?
Answer: inconclusive: -67.6

Question: CCC(=NCCOc1ccc(Cl)cc1)c1c(O)n(C)c(=O)n(C)c1=O was tested. Which fluorescence change (max-min) did it give?
Answer: inconclusive: -52.9

Question: Which fluorescence change (max-min) does the source give for COc1ccc(P2(=O)Nc3ccccc3N2)cc1 here?
Answer: active: 163

Question: Which fluorescence change (max-min) does the source give for O=c1[nH]c(=O)n(-c2ccc(F)cc2)c(O)c1C=Nc1ccccc1N1CCCC1 here?
Answer: inconclusive: -106

Question: Which fluorescence change (max-min) does the source give for Cc1ccc(C(=O)C2CN3CCC2CC3)cc1 (stereo not drawn) here?
Answer: inconclusive: -101

Question: CCn1nc(-c2ccccc2)nc2c(=O)n(C)c(=O)nc1-2 was tested. Which fluorescence change (max-min) did it give?
Answer: inconclusive: 178

Question: How did the fluorescence change (max-min) turn out when CNCC(O)c1cccc(OC(=O)c2ccccc2C)c1 (stereo not drawn) was run?
Answer: inconclusive: -78.1

Question: How did the fluorescence change (max-min) turn out when CCC(C)N1C(=O)NC(=O)C2(Cc3c(ccc4ccccc34)N(C)C2)C1=O (stereo not drawn) was run?
Answer: inconclusive: -80.4

Question: For CCCS(=O)(=O)N1CCCC(C(=O)N2CCC3(CC2)OCCO3)C1 (stereo not drawn), which fluorescence change (max-min) is on record?
Answer: inactive: -10.4

Question: With CCN(CC)c1ccc(N=Cc2c(O)n(CCC3=CCCCC3)c(=O)[nH]c2=O)cc1 as the compound, how does the fluorescence change (max-min) read?
Answer: active: 627

Question: With Cc1cc2c(C(F)(F)F)cc(=O)oc2c2c1NCCC2 as the compound, how does the fluorescence change (max-min) read?
Answer: active: 1120
